“And” between values parts separate entries of the source, which are not always exact repeats. Equal values may be shown once. Among all 390,000 compounds or so, about 4,000 (1%) were called active. Inconclusive results, whose numbers are uncertain, are shown with a selection of clear calls. Calls follow the shape of the dose curve; as a rule, active = well fitted inhibition curve with a large enough effect; inconclusive = small, poorly fitted or top-dose-only effect, or another doubt; inactive = no such curve, though single readings can be large or run the other way. Potencies of inconclusive entries are doubtful fits and often do not repeat.
biological target: DNA polymerase iota (Homo sapiens) (UniProt Q9UNA4); assay: qHTS for Inhibitors of Polymerase Iota; conditions: Pol iota fluorescent replication assay, 10 min; series mostly up to 115 µM; activity, negative = inhibition: at the top concentration
Outline: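 Pol iota at 10 nM preincubated 15 min with compounds at room temperature; reaction started with fluorescent substrate, 50 nM final. Fluorescence read kinetically at 0 and 10 min; buffer-only wells as negative control.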
Potency is read from the fitted curve at half-maximal effect.

Chains of the proteins cited; added tags and fusions are not shown. Lines headed by an entry give the natural chain unless they say otherwise; changes in a name come on top.
UniProt Q9UNA4: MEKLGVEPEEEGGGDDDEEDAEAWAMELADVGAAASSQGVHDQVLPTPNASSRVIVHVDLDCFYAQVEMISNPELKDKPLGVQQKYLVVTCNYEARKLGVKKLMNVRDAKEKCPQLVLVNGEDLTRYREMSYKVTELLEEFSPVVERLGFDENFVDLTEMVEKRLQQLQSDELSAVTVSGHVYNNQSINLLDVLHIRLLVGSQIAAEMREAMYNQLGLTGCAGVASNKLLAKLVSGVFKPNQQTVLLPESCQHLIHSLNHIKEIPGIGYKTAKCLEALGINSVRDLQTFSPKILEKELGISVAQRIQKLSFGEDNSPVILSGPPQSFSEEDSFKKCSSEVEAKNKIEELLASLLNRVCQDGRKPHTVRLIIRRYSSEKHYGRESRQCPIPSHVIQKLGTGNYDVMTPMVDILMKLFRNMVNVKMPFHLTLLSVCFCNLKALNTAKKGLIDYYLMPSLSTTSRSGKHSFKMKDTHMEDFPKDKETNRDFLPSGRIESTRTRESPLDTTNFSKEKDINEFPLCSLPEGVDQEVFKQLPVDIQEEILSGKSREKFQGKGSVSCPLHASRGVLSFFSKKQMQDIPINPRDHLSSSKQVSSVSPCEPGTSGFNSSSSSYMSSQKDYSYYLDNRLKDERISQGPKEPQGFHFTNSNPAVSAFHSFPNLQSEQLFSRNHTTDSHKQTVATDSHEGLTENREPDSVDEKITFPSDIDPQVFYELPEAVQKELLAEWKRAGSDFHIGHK

activity, negative = inhibition, inactive:
COc1ccc(NS(=O)(=O)c2cc3c4c(c2)CC(=O)N4CCC3)cc1Cl -8.67%
Cc1cc(C)cc(NC(=O)Nc2c[nH]c(=O)[nH]c2=O)c1 4.86%
COCCn1c(=S)[nH]c2cc(C(=O)N(CCO)Cc3ccccc3)ccc2c1=O 11.6%
COC(=O)c1c(NC(=O)CCCOc2ccccc2C)sc2c1CCC2 -19.9%
COc1ccc(C2(c3ccc(OC)cc3)NC(=O)NC2=O)cc1 73.1%
CCCCS(=O)(=O)N1CCCC(C(=O)Nc2ccc3c(c2)CCC3)C1 (configuration not stated) 34.2%
O=C(NCc1ccc(F)cc1)c1c(O)c2cccc3c2n(c1=O)CCC3 -3.62%
O=C(NCCCN1CCCC1)c1ccc2c(c1)N(Cc1ccccc1F)C(=O)c1ccccc1S2(=O)=O 3.4%
CCc1ccccc1N1CC(c2nc3ccccc3n2CCC2CCCCC2)CC1=O (configuration not stated) -25.4%
CC[C@]12C(=O)N(C)C[C@H]([C@@H]3C(=O)N(C)C(=O)[C@@H]31)N2C(=O)c1ccc(Br)cc1 -13.5%
CC(=O)NC1C(c2nc3ccccc3s2)=C(c2ccccc2)C(=O)N1c1ccc(C)cc1 (configuration not stated) 0.142%
CC1(C)CC(=O)C(C(c2cc([N+](=O)[O-])ccc2Cl)C2C(=O)CC(C)(C)CC2=O)C(=O)C1 22.1%
COc1ccc(N(C(=O)c2ccccc2C)S(=O)(=O)c2ccc3c(c2)n(C)c(=O)n3C)cc1 9.14%
CN(C)c1cccc(-c2nnc(SCC(=O)NCc3ccco3)n2C)c1 -0.837%
Cc1cccc(N(C(=O)Cc2cccs2)C(C(=O)NCc2ccco2)c2ccncc2)c1 (configuration not stated) 3.72%

Potency, active:
S=c1[nH]nc(-c2cc(-c3ccccc3)n[nH]2)n1/N=C/c1cccc(Cl)c1 25.1 µM
Cc1ccc(Cn2c(=N)c(C(=O)NCc3ccco3)cc3c(=O)n4ccccc4nc32)cc1 3.98 µM
COc1ccccc1/C=C/C=c1\sc2nc(=O)c(Cc3ccccc3)nn2c1=O 4.47 µM

Potency, inconclusive:
CCOc1cc(/C=N/Nc2ncc(C)c(=O)[nH]2)ccc1O 17.8 µM [inhibitor, full curve]
O=C1CN(C(=O)NCC(=O)N[C@H](C(=O)O)c2ccccc2)c2ccccc2N1 50.1 µM [inhibitor, partial curve, poor fit]
Cc1cc(C)c2c(n1)SCC(=O)N2CC(=O)Nc1c(C)cccc1C 100 µM [inhibitor, single point]
CCOc1c2ccc(C(=O)NCc3cc(C(F)(F)F)cc(C(F)(F)F)c3)cc2nn1CCOC 39.8 µM [inhibitor, single point]
O=C(COC(=O)c1cc(S(=O)(=O)N2CCOCC2)cs1)c1ccccc1 79.4 µM [inhibitor, single point]
N#Cc1ccsc1NC(=O)CCN1CCN(C(c2ccccc2)c2ccccc2)CC1 70.8 µM [inhibitor, single point]
CC(=O)Nc1nc(C)c(-c2csc(Nc3cccc([N+](=O)[O-])c3)n2)s1 56.2 µM [inhibitor, partial curve, poor fit]
Cc1ccc([C@@H]2CC=C(C(=O)O)[C@H](c3ccc(Cl)cc3)N2S(=O)(=O)c2ccccc2C)cc1 0.794 µM [inhibitor, partial curve, poor fit]
Cc1ccc(NC(=O)C2=C(O)CCn3c2nc2ccccc23)cc1 39.8 µM [inhibitor, single point]
COc1cc2c(c3oc(=O)cc(CC(=O)O)c13)CCC(C)(C)O2 79.4 µM [inhibitor, single point]
CN1CCN(c2ccc(CNC(=O)c3ccco3)cc2)CC1 0.631 µM [inhibitor, full curve, poor fit]
Cc1cccc(NC(=O)COC(=O)c2cccc(S(=O)(=O)N3CCCCCC3)c2)c1 79.4 µM [inhibitor, single point]
COC(=O)[C@@]1(C)[C@H]2C(=O)N(C)C(=O)[C@H]2[C@H]2CN=C(SCC(=O)c3ccccc3)N21 0.794 µM [inhibitor, partial curve, poor fit]
COc1ccc2c(c1)[C@H]1[C@H](CO2)[C@H](c2ccccc2)[C@]2(C)C(=O)N(CC3CCCO3)CC(=O)N12 (some centres not stated) 39.8 µM [inhibitor, single point]
Cc1nnc(N2CCC(C(=O)NCc3cccc(Cl)c3)CC2)c2nn(-c3ccccc3)c(C)c12 39.8 µM [inhibitor, partial curve]
O=C(COC(=O)C1CCCCC1C(=O)N1CCc2ccccc21)NCc1ccco1 (configuration not stated) 4.47 µM [inhibitor, partial curve, poor fit]
O=[N+]([O-])/C=C\c1ccc(N2CCOCC2)cc1 22.4 µM [inhibitor, single point]
Cn1cc(Br)c(C(=O)Nc2sc3c(c2C(N)=O)CCC3)n1 12.6 µM [inhibitor, partial curve, poor fit]
Cc1ccc(/C=C/C(=O)c2ccc([N+](=O)[O-])o2)cc1 7.94 µM [inhibitor, full curve, poor fit]
O=C(Nc1cccc(S(=O)(=O)N2CCCCC2)c1)c1cncc(Br)c1 8.91 µM [inhibitor, partial curve, poor fit]
COC(=O)CN(c1cc(OC)ccc1OC)S(=O)(=O)c1ccc(OC)c(OC)c1 39.8 µM [inhibitor, partial curve, poor fit]
CCc1c(C)nc2c(-c3ccccc3)c[nH]n2c1=O 100 µM [inhibitor, partial curve, poor fit]
COC(=O)[C@]1(Cc2ccccc2)N[C@H](c2ccc(-c3ccc4c(c3)OCO4)cc2)[C@@H]2C(=O)N(C)C(=O)[C@@H]21 31.6 µM [inhibitor, partial curve, poor fit]
O=c1cc(-c2ccccc2)oc2cc(O)c(O)c(O)c12 25.1 µM [inhibitor, partial curve, poor fit] and 70.8 µM [inhibitor, partial curve, poor fit]
COc1ccc(NC(=O)c2ccc(-c3cccc(Cl)c3C)o2)cc1 89.1 µM [inhibitor, single point]
O=C(COC(=O)C12CC3CC(CC(Br)(C3)C1)C2)Nc1ccc2[nH]c(=O)[nH]c2c1 15.8 µM [inhibitor, full curve]
O=C1CSC(=S)N1/N=C/c1ccc(C(F)(F)F)cc1 28.2 µM [inhibitor, partial curve, poor fit]
COC(=O)C1=C(C)NC(=O)NC1c1cn(-c2ccccc2)nc1-c1ccc(OC)c(Cl)c1 (configuration not stated) 89.1 µM [inhibitor, partial curve, poor fit]
O=C(OCc1ccco1)c1cccnc1 70.8 µM [inhibitor, single point]
COc1ccc(NC(=O)c2cccs2)cn1 89.1 µM [inhibitor, single point]
COc1cccc(/C=N/NC(=O)c2cccc(N3CCCC3=O)c2)c1 79.4 µM [inhibitor, partial curve, poor fit]
CCC1SC2=NC(C)=C(C(=O)OCCOC)C(/C=C/c3ccccc3OC)N2C1=O (configuration not stated) 3.55 µM [inhibitor, single point]
CCN(c1ncnc2c1c(-c1ccccc1)cn2-c1ccccc1)C1CCCCC1 89.1 µM [inhibitor, single point]
O=C(/C=C/c1ccco1)N(Cc1cccc(Cl)c1)C1CCS(=O)(=O)C1 (configuration not stated) 20 µM [inhibitor, full curve]
Clc1cccc(-c2ccc(C3Nc4cccc5cccc(c45)N3)o2)c1 0.708 µM [inhibitor, full curve, poor fit]
COc1ccc(S(N)(=O)=O)cc1C(=O)OCC(=O)Nc1sccc1C#N 31.6 µM [inhibitor, single point]
COC(=O)c1ccccc1NC(=O)CSc1nc(O)cc(=O)n1C1CCCC1 2.24 µM [inhibitor, full curve, poor fit]
CCNc1nc(NCC)n2c(SCC(=O)Nc3ccc(NC(C)=O)cc3)nnc2n1 56.2 µM [inhibitor, partial curve, poor fit]
CC(C)OC(=O)C(C(=O)C(F)(F)F)c1cc(NS(=O)(=O)c2ccc3ccccc3c2)c2ccccc2c1O (configuration not stated) 17.8 µM [inhibitor, partial curve, poor fit]
CC(C)=CC(=O)OCC(=O)Nc1ncc(Cl)c(C)c1Cl 17.8 µM [inhibitor, full curve]
Cc1cc2nc3c(nc2cc1C)CCCC3 100 µM [inhibitor, single point]
Cc1cc(C)cc(NC(=O)NCC2CCN(Cc3cc(C)ccc3C)CC2)c1 100 µM [inhibitor, single point]
CCOc1ccc(C(=O)C(CCC(CN(C)C)C(=O)c2ccc(OCC)cc2)CN(C)C)cc1 (configuration not stated) 35.5 µM [inhibitor, partial curve, poor fit]
O=C1CCCN2N=C(SCC(=O)Nc3nccs3)SC2=N1 50.1 µM [inhibitor, partial curve, poor fit]

Retrieved one by one from the entries so far, 4 records:
Potency, inconclusive:
O=C1CN(C(=O)NCC(=O)N[C@H](C(=O)O)c2ccccc2)c2ccccc2N1 50.1 µM [inhibitor, partial curve, poor fit]
N#Cc1ccsc1NC(=O)CCN1CCN(C(c2ccccc2)c2ccccc2)CC1 70.8 µM [inhibitor, single point]
COC(=O)CN(c1cc(OC)ccc1OC)S(=O)(=O)c1ccc(OC)c(OC)c1 39.8 µM [inhibitor, partial curve, poor fit]
COc1cc2c(c3oc(=O)cc(CC(=O)O)c13)CCC(C)(C)O2 79.4 µM [inhibitor, single point]

Source: PubChem BioAssay AID588590 (National Center for Advancing Translational Sciences (NCATS), 2011)
